Laboratory results: patent publication US7247709B2, “Mitogenic oxygenases” (Emory University, priority 1998, dated 2007)
Some of these results come from one statement about several compounds together. At least one compound was matched to its structure with a doubt left.

Test system: r-p65mox mRNA
Assay: Expression of r-p65mox mRNA in rat aortic smooth muscle cells (Northern blot)
Assay type: cell-based
Settings: in response to PMA
Method: Human multiple tissue northern (MTN) Blot I and Human MTN Blot IV (ClonTech) membranes were hybridized with the putative coding region of the PCR-mox vector at 68° C. for several hours. The mox coding region was labeled by random priming with [α-^32P]dCTP (10 μCi) using the Prime-It II kit (Stratagene). For analysis of mox1 expression in cell lines, total RNA was prepared from 10^6 cells using the High Pure RNA Isolation Kit (Boehringer Mannheim) or RNeasy kit (Quiagen). Total RNA (10-20 μg) was separated on a 1% agarose formaldehyde mini-gel and transferred to a Nytran filter (Biorad) and immobilized by ultraviolet cross-linking.
Using the partial cDNA clone from rat, we have examined cultured rat aortic smooth muscle cells for expression of message for r-p65mox. We have observed the mRNA for r-p65mox in these cells. It has been previously reported (Griendling et al. (1994) Circ. Res. 74, 1141-1148; Fukui et al. (1997) Circ. Res. 80, 45-51; Ushio-Fukai et al. (1996) J. Biol. Chem. 271, 23317-23321) that in vitro or in vivo treatment with angiotensin II (AII) is a growth stimulus for vascular smooth muscle cells, and that AII induces increased superoxide generation in these cells. Platelet-derived growth factor (PDGF) and PMA are proliferative signals for vascular smooth muscle cells. […]

## CCCCCCCCCCCCCC(=O)O[C@@H]1[C@@H](C)[C@@]2(O)[C@@H](C=C(CO)C[C@]3(O)C(=O)C(C)=C[C@@H]23)[C@@H]2C(C)(C)[C@]12OC(C)=O [PMA, Phorbol Myristic Acid]
  increase of mRNA for r-p65mox: 2-3 fold
